Laboratory results: article PMC4074815, “An Impermeant Ganetespib Analog Inhibits Extracellular Hsp90-Mediated Cancer Cell Migration that Involves Lysyl Oxidase 2-like Protein” (Cancers, 2014)
Results are given in words; binding and its absence hold for the method and conditions named. In cells and extracts the contact can be indirect. A yes stands for co-enrichment or nearness to the bait. Other partners may have been found. Blank lines part the entries; values can stand above or below the molecule they belong to.

Sequences of proteins named here, by UniProt entry; tags and fusion partners are left off. Residues count along the entry.
UniProt Q9Y4K0, residues 26-774: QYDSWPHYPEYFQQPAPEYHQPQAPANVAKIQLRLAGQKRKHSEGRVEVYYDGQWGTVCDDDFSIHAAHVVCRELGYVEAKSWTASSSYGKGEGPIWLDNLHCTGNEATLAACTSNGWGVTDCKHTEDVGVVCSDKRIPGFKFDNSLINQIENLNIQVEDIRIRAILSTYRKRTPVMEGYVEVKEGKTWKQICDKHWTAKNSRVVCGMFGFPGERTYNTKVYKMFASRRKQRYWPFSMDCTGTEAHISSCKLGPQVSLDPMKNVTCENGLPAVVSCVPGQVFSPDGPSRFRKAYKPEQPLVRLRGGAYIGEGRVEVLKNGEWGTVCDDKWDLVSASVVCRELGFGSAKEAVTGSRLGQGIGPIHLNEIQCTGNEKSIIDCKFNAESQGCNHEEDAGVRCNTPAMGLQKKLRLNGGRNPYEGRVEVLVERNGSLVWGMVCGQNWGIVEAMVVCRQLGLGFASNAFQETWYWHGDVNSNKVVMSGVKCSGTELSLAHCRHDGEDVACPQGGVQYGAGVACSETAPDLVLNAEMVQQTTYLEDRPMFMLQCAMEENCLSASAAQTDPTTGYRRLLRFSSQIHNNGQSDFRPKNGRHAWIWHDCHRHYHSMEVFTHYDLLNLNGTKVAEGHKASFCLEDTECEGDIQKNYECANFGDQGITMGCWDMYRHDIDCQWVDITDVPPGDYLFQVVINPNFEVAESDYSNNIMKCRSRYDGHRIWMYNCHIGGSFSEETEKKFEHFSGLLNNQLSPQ
UniProt P28799, residues 18-593: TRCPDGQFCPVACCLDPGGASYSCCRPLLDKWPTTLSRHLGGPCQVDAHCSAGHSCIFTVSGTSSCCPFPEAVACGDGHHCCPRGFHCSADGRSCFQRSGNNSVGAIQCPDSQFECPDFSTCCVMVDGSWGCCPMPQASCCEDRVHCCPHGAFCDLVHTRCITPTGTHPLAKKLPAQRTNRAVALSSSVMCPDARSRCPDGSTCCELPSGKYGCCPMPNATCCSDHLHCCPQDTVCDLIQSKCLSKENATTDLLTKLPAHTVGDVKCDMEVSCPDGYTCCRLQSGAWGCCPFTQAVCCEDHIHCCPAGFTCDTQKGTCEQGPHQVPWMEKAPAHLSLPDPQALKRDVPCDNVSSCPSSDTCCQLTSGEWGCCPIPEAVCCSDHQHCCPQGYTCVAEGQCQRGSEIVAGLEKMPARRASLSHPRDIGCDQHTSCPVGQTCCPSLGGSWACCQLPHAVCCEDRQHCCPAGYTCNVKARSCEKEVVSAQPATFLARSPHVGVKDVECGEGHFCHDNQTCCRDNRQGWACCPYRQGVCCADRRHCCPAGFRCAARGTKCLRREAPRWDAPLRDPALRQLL

Target: Heat Shock Protein 90 kDa alpha (cytosolic), class A member 1 isoform 2 (human (endogenous in MDA-MB231)) (UniProt P07900)
Test: affinity purification with mass spectrometry; immunoprecipitation with hsp90α antibody (1 μg) from 1 mg protein of concentrated serum-free conditioned media of MDA-MB231 cells, pre-cleared with protein A beads; washed with RIPA B buffer (50 mM Tris, 150 mM NaCl, 0.5% NP40, 0.25% DOC); SDS-PAGE, Coomassie-stained bands excised for mass spectrometry

Molecule: Albumin precursor (from UniProt P02768)
binding: binds

Molecule: Lysyl Oxidase-like 2 precursor (from UniProt Q9Y4K0 26-774)
binding: binds

Molecule: Plasminogen Activator, tissue type isoform 1 preprotein (from UniProt P00750 36-562)
binding: binds

B1: MAM domain containing 2 (protein, UniProt Q7Z304 19-686)
chain: LDLPAGSCAFEESTCGFDSVLASLPWILNEEGHYIYVDTSFGKQGEKAVLLSPDLQAEEWSCLRLVYQITTSSESLSDPSQLNLYMRFEDESFDRLLWSAKEPSDSWLIASLDLQNSSKKFKILIEGVLGQGNTASIALFEIKMTTGYCIECDFEENHLCGFVNRWNPNVNWFVGGGSIRNVHSILPQDHTFKSELGHYMYVDSVYVKHFQEVAQLISPLTTAPMAGCLSFYYQIQQGNDNVFSLYTRDVAGLYEEIWKADRPGNAAWNLAEVEFSAPYPMEVIFEVAFNGPKGGYVALDDISFSPVHCQNQTELLFSAVEASCNFEQDLCNFYQDKEGPGWTRVKVKPNMYRAGDHTTGLGYYLLANTKFTSQPGYIGRLYGPSLPGNLQYCLRFHYAIYGFLKMSDTLAVYIFEENHVVQEKIWSVLESPRGVWMQAEITFKKPMPTKVVFMSLCKSFWDCGLVALDDITIQLGSCSSSEKLPPPPGECTFEQDECTFTQEKRNRSSWHRRRGETPTSYTGPKGDHTTGVGYYMYIEASHMVYGQKARLLSRPLRGVSGKHCLTFFYHMYGGGTGLLSVYLKKEEDSEESLLWRRRGEQSISWLRALIEYSCERQHQIIFEAIRGVSIRSDIAIDDVKFQAGPCGEMEDTTQQSSGYSEDLNEIEY
binding: binds

B2: Galactosylceramidase isoform a precurso (protein, UniProt P54803 43-685)
chain: YVLDDSDGLGREFDGIGAVSGGGATSRLLVNYPEPYRSQILDYLFKPNFGASLHILKVEIGGDGQTTDGTEPSHMHYALDENYFRGYEWWLMKEAKKRNPNITLIGLPWSFPGWLGKGFDWPYVNLQLTAYYVVTWIVGAKRYHDLDIDYIGIWNERSYNANYIKILRKMLNYQGLQRVKIIASDNLWESISASMLLDAELFKVVDVIGAHYPGTHSAKDAKLTGKKLWSSEDFSTLNSDMGAGCWGRILNQNYINGYMTSTIAWNLVASYYEQLPYGRCGLMTAQEPWSGHYVVESPVWVSAHTTQFTQPGWYYLKTVGHLEKGGSYVALTDGLGNLTIIIETMSHKHSKCIRPFLPYFNVSQQFATFVLKGSFSEIPELQVWYTKLGKTSERFLFKQLDSLWLLDSDGSFTLSLHEDELFTLTTLTTGRKGSYPLPPKSQPFPSTYKDDFNVDYPFFSEAPNFADQTGVFEYFTNIEDPGEHHFTLRQVLNQRPITWAADASNTISIIGDYNWTNLTIKCDVYIETPDTGGVFIAGRVNKGGILIRSARGIFFWIFANGSYRVTGDLAGWIIYALGRVEVTAKKWYTLTLTIKGHFTSGMLNDKSLWTDIPVNFPKNGWAAIGTHSFEFAQFDNFLVEATR
binding: binds

Other lines, results leading:

binding: binds
Molecule: Granulin precursor (from UniProt P28799 18-593)

binding: binds
B3: Lysyl Oxidase-like 4 precursor (protein, UniProt Q96JB6 25-756)
chain: QSLGTTKLRLVGPESKPEEGRLEVLHQGQWGTVCDDNFAIQEATVACRQLGFEAALTWAHSAKYGQGEGPIWLDNVRCVGTESSLDQCGSNGWGVSDCSHSEDVGVICHPRRHRGYLSETVSNALGPQGRRLEEVRLKPILASAKQHSPVTEGAVEVKYEGHWRQVCDQGWTMNNSRVVCGMLGFPSEVPVDSHYYRKVWDLKMRDPKSRLKSLTNKNSFWIHQVTCLGTEPHMANCQVQVAPARGKLRPACPGGMHAVVSCVAGPHFRPPKTKPQRKGSWAEEPRVRLRSGAQVGEGRVEVLMNRQWGTVCDHRWNLISASVVCRQLGFGSAREALFGARLGQGLGPIHLSEVRCRGYERTLSDCPALEGSQNGCQHENDAAVRCNVPNMGFQNQVRLAGGRIPEEGLLEVQVEVNGVPRWGSVCSENWGLTEAMVACRQLGLGFAIHAYKETWFWSGTPRAQEVVMSGVRCSGTELALQQCQRHGPVHCSHGGGRFLAGVSCMDSAPDLVMNAQLVQETAYLEDRPLSQLYCAHEENCLSKSADHMDWPYGYRRLLRFSTQIYNLGRTDFRPKTGRDSWVWHQCHRHYHSIEVFTHYDLLTLNGSKVAEGHKASFCLEDTNCPTGLQRRYACANFGEQGVTVGCWDTYRHDIDCQWVDITDVGPGNYIFQVIVNPHYEVAESDFSNNMLQCRCKYDGHRVWLHNCHTGNSYPANAELSLEQEQRLRNNLI
